Measurements: the supplement of paper PMC10849652
This is one part of the list.

The chains behind the UniProt entries cited, without tags or fusion partners. Where a name states a change or a piece, a line headed by the entry shows the natural chain unless it says otherwise.
UniProt Q96FX7: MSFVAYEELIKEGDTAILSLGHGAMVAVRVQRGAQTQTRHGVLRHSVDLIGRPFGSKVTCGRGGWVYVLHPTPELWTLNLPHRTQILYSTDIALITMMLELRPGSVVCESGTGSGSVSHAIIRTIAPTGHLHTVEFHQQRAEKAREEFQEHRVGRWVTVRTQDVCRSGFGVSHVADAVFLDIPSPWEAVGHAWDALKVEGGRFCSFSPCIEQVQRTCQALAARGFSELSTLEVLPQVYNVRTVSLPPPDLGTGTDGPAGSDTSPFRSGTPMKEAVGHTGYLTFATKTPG
UniProt Q7L0Y3: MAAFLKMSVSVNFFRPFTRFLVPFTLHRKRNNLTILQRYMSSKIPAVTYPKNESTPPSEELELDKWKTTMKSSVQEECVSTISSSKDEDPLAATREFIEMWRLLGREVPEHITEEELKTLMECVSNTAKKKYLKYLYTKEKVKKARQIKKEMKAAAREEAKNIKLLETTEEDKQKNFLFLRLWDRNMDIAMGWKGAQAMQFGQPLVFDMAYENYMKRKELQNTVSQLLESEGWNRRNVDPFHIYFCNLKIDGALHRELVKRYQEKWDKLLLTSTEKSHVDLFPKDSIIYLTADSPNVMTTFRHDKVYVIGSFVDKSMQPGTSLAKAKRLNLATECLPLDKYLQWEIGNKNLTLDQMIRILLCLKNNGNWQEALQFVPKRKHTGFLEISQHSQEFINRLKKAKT
UniProt Q9Y4A5, whole entry, looked up: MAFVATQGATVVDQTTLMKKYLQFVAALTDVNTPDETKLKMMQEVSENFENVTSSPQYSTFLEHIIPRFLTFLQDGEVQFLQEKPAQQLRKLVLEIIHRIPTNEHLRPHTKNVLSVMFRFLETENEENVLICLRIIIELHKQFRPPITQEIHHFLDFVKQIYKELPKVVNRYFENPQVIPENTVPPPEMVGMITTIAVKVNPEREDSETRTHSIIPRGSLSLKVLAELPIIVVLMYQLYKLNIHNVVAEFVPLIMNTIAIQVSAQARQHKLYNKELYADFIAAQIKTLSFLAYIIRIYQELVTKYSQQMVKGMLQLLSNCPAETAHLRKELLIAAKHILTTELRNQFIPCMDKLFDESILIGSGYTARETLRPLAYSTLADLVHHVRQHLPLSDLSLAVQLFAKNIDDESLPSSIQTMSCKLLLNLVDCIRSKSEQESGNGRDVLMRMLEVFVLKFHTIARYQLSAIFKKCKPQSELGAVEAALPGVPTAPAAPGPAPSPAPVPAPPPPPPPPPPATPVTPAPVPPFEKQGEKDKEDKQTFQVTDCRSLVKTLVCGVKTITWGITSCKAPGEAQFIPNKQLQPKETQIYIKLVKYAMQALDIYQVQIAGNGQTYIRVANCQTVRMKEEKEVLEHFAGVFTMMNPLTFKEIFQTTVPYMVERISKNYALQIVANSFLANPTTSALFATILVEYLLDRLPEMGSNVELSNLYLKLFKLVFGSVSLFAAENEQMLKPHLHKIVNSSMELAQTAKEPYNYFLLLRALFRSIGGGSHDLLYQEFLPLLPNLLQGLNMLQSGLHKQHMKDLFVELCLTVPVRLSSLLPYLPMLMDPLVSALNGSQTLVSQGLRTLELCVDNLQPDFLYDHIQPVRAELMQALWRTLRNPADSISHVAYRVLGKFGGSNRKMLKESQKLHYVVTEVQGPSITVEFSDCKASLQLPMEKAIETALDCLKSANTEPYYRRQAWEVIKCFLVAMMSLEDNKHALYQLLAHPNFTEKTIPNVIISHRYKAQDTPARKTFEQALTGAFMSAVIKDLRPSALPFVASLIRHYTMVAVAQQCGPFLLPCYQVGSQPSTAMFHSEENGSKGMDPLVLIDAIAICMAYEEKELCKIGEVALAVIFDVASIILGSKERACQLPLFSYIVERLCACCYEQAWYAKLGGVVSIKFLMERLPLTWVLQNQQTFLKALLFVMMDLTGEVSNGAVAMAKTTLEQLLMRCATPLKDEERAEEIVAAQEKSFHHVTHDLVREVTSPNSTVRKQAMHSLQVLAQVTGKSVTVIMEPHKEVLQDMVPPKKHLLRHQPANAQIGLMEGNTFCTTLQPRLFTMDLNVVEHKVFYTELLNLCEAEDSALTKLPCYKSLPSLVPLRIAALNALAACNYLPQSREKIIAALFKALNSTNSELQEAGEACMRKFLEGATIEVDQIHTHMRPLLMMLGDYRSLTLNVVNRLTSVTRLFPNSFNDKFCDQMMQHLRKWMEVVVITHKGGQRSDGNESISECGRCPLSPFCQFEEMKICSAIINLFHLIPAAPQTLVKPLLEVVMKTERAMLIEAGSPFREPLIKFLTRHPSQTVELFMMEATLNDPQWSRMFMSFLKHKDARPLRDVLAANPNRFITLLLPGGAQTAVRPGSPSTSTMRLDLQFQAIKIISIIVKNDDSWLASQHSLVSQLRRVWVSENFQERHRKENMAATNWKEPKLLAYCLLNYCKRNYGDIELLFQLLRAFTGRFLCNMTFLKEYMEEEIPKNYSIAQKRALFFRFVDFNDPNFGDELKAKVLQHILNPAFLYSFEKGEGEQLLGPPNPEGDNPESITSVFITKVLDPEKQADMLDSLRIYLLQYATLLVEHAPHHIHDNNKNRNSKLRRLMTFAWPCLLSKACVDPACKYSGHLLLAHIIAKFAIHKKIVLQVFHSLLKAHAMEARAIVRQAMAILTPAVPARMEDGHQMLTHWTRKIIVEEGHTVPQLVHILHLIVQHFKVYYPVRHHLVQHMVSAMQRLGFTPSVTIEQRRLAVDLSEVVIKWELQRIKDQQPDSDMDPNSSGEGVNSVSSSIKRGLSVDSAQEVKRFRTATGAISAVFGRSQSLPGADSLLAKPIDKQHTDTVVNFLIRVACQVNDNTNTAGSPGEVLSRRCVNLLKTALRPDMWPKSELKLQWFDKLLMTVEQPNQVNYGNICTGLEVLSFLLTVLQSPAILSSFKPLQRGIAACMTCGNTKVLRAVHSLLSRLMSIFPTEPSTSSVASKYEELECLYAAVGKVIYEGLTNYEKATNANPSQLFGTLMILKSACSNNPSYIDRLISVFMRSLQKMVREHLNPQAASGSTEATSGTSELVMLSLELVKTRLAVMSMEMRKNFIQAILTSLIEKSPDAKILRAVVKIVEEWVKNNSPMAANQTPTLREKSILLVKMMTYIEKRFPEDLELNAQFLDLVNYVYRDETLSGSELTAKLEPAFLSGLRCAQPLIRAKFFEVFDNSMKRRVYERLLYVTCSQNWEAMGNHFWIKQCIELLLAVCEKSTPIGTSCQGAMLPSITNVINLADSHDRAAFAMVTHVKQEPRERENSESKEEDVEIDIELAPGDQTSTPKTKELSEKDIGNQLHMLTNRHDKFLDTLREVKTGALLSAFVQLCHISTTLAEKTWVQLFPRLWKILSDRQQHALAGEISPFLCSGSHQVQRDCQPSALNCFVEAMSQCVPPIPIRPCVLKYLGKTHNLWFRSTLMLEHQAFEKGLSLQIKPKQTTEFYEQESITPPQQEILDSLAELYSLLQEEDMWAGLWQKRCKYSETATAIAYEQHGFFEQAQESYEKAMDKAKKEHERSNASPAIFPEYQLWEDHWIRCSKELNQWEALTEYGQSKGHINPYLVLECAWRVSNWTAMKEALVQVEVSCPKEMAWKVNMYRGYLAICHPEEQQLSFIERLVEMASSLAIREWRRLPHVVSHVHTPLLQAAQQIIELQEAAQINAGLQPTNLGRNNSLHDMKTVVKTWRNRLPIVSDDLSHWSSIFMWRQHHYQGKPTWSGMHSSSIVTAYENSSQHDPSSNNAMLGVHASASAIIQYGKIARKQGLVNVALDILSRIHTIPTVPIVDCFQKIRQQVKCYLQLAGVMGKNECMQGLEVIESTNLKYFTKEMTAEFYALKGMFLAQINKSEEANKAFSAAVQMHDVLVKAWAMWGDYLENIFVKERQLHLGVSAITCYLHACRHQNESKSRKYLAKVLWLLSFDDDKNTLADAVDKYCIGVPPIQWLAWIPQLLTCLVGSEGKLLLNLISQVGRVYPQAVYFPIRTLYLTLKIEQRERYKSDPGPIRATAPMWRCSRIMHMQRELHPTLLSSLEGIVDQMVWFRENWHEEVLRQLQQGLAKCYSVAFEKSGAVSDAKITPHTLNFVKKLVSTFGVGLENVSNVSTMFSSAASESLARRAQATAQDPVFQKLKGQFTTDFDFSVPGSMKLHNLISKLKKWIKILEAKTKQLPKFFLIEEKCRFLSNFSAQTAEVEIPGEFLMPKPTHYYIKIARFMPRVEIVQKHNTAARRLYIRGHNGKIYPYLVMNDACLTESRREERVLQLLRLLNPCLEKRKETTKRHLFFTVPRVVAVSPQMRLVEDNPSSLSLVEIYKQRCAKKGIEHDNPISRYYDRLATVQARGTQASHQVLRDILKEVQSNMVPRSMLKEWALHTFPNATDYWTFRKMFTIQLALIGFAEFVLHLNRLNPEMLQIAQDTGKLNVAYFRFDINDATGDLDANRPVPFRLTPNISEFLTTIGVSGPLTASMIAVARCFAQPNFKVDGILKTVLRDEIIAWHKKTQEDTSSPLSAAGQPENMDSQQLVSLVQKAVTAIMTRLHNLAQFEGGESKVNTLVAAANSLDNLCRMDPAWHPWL
UniProt P02585, whole entry, looked up: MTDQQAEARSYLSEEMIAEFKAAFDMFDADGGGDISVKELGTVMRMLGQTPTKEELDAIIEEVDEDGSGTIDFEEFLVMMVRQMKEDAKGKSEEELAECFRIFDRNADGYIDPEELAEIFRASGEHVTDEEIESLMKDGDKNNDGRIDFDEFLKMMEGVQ
UniProt Q9UPQ9, whole entry, looked up: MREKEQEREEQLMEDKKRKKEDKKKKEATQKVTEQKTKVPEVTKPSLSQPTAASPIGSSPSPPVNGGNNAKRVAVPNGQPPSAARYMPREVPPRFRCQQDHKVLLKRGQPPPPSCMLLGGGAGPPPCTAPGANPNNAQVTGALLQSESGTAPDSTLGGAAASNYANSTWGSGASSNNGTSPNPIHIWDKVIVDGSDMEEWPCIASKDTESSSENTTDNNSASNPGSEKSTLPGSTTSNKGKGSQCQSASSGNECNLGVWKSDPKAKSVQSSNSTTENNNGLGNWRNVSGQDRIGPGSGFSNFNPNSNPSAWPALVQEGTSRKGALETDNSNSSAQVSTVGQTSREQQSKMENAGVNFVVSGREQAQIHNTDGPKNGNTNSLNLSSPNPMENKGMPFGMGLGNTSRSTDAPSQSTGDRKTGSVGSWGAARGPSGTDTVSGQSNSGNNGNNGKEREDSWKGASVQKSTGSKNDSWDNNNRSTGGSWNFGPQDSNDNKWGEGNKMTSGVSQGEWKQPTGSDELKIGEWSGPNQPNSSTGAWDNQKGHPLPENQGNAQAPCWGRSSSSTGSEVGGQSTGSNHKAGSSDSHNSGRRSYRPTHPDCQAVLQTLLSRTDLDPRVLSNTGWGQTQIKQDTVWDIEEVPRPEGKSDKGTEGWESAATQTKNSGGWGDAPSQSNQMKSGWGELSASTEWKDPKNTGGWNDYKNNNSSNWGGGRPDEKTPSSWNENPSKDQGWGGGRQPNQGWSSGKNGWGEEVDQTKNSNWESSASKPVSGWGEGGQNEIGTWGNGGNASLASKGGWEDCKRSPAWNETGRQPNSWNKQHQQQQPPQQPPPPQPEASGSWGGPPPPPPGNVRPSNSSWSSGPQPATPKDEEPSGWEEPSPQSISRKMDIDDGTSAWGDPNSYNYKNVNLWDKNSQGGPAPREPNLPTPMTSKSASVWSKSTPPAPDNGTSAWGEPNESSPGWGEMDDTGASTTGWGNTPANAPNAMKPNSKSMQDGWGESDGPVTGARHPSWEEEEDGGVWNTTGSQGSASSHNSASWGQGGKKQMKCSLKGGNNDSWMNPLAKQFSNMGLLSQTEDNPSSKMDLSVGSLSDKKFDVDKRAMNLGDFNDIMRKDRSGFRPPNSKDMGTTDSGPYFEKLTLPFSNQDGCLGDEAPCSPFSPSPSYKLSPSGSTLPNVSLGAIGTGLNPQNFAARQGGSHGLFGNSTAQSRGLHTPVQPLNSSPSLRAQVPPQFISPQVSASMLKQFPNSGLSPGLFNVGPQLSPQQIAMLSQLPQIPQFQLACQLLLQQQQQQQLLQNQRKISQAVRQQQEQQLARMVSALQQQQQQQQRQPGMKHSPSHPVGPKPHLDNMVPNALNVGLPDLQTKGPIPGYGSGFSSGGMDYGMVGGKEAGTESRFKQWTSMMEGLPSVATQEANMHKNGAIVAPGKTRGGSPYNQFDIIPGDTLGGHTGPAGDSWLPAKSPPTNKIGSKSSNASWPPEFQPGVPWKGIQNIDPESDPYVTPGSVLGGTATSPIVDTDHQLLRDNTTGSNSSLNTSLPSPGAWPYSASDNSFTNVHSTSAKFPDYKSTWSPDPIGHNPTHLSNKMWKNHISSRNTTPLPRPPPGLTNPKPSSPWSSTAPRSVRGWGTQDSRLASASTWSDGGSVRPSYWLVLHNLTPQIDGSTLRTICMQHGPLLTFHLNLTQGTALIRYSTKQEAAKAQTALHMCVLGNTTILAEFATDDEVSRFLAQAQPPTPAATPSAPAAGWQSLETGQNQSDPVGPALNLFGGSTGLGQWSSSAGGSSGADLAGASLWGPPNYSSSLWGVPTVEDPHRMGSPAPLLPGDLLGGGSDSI
UniProt Q8N4H5: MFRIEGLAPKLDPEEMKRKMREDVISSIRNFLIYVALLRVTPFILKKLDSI

Experiments:
Assay in all cases: log2 fold change, soluble protein after heating vs DMSO (PISA); higher = thermal stabilisation; K562 cells, 10 uM, 30 min; active = over 0.2 and 3.5 SD of the protein, either way, in both replicates (recomputed)
[1] = compound: CN1CCN(CCOc2cc(OC3CCOCC3)c3c(Nc4c(Cl)ccc5c4OCO5)ncnc3c2)CC1 [saracatinib]
In short: (§1)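 Quantification of soluble protein used TMTpro 16plex LC-MS/MS, with channel sums equalised. Samples were the supernatant after 21,000xg for 90 min of pooled aliquots from K562 cells (2×10^6 cells/mL) treated with 10 μM compound for 30 min, heated for 3 min over 48°C-58°C, and extracted in PBS with 0.5% NP-40 at 4°C. Values, from duplicates, describe thermal stability against control samples on a log2 fold-change scale.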

[2] = compound: CN1CCN(c2nc(C3=C(c4c[nH]c5ccccc45)C(=O)NC3=O)c3ccccc3n2)CC1 [sotrastaurin]
In short: as §1

[3] = compound: CN1CC[C@H](c2c(O)cc(O)c3c(=O)cc(-c4ccccc4Cl)oc23)[C@H](O)C1 [alvocidib]
In short: as §1

[4] = compound: CN1CCc2c(c3ccccc3n2Cc2ccc(C(=O)NO)cc2)C1 [Tubastatin A]
In short: as §1

[5] = compound: CNC(=O)C1=CC=CC=C1NC2=NC(=NC=C2Cl)NC3=C(C=C(C=C3)N4CCOCC4)OC
In short: as §1

[6] = compound: CNC(=O)c1ccc(Nc2ncc(C(F)(F)F)c(NCc3nccnc3N(C)S(C)(=O)=O)n2)cc1 [defactinib]
In short: as §1

[7] = compound: CNCc1ccc(-c2[nH]c3cc(F)cc4c3c2CCNC4=O)cc1 [rucaparib]
In short: as §1

[8] = compound: CNc1nc(-c2ccc3c(N)n[nH]c3c2)cc(N2C[C@@H](C(=O)NC3CCCCC3)CC[C@H]2C)n1
In short: as §1

[9] = compound: COC(=O)N[C@@H](C)CNc1nccc(-c2cn(C(C)C)nc2-c2cc(Cl)cc(NS(C)(=O)=O)c2F)n1 [encorafenib]
In short: as §1

[10] = compound: COC(=O)[C@H](CCSC)NC(=O)C1=C(C=C(C=C1)NC[C@H](CS)N)C2=CC=CC=C2
In short: as §1

[11] = compound: COC1=CC=C(C=C1)CN2C=CC3=C2C=C(C=C3)C(=O)NO
In short: as §1

[12] = compound: CON(C)C(=O)N1N=C(c2cc(F)ccc2F)S[C@@]1(CCCN)c1ccccc1 [filanesib]
In short: as §1

[13] = compound: CO[C@H]1C[C@@H]2CC[C@@H](C)[C@@](O)(O2)C(=O)C(=O)N2CCCC[C@H]2C(=O)O[C@H]([C@H](C)C[C@@H]2CC[C@H](n3cnnn3)[C@H](OC)C2)CC(=O)[C@H](C)/C=C(\C)[C@@H](O)[C@@H](OC)C(=O)[C@H](C)C[C@H](C)/C=C/C=C/C=C/1C [zotarolimus]
In short: as §1

[14] = compound: COc1cc(C(=O)O)ccc1NC(=O)[C@@H]1N[C@@H](CC(C)(C)C)[C@](C#N)(c2ccc(Cl)cc2F)[C@H]1c1cccc(Cl)c1F [idasanutlin]
In short: as §1

[15] = compound: COc1cc(Nc2ncc3c(n2)-c2ccc(Cl)cc2C(c2c(F)cccc2OC)=NC3)ccc1C(=O)O [alisertib]
In short: as §1

[16] = compound: COc1cc2nc(-c3cc(F)ccc3O)nc(N[C@@H]3CNC[C@H]3C(C)(C)O)c2cc1OC
In short: as §1

[17] = compound: COc1cc2ncnc(Nc3ccc(F)c(Cl)c3)c2cc1OCCCN1CCOCC1 [gefitinib]
In short: as §1

[18] = compound: COc1cccc2cc(-c3nc([C@H]4CC[C@H](C(=O)O)CC4)n4ncnc(N)c34)[nH]c12
In short: as §1

[19] = compound: CS(=O)(=O)CCNCc1ccc(-c2ccc3ncnc(Nc4ccc(OCc5cccc(F)c5)c(Cl)c4)c3c2)o1 [lapatinib]
In short: as §1

[20] = compound: CS(=O)(=O)N1CCN(Cc2cc3nc(-c4cccc5[nH]ncc45)nc(N4CCOCC4)c3s2)CC1 [pictilisib]
In short: as §1

Row | Target | log2 fold change [1] | log2 fold change [2] | log2 fold change [3] | log2 fold change [4] | log2 fold change [5] | log2 fold change [6] | log2 fold change [7] | log2 fold change [8] | log2 fold change [9] | log2 fold change [10] | log2 fold change [11] | log2 fold change [12] | log2 fold change [13] | log2 fold change [14] | log2 fold change [15] | log2 fold change [16] | log2 fold change [17] | log2 fold change [18] | log2 fold change [19] | log2 fold change [20]
1 | TRMT11 (UniProt Q7Z4G4) | inactive: 0.054 | inactive: 0.083 | inactive: -0.053 | inactive: 0.001 | inactive: -0.021 | inactive: -0.017 | inactive: 0.03 | inactive: -0.006 | inactive: -0.006 | inactive: 0.054 | inactive: 0.042 | inactive: 0.002 | inactive: 0.015 | inactive: -0.046 | inactive: -0.011 | inactive: -0.055 | inactive: 0.03 | inactive: 0.085 | inactive: 0 | inactive: -0.007
2 | TRIP13 (UniProt Q15645) | inactive: 0.042 | inactive: -0.027 | inactive: -0.067 | inactive: -0.071 | inactive: -0.063 | inactive: -0.034 | inactive: -0.016 | inactive: -0.002 | inactive: 0.027 | inactive: -0.006 | inactive: -0.01 | inactive: -0.127 | inactive: -0.002 | inactive: -0.053 | inactive: -0.104 | inactive: -0.037 | inactive: 0.015 | inactive: 0.024 | inactive: -0.007 | inactive: -0.046
3 | TPK1 (UniProt Q9H3S4) | inactive: 0.045 | inactive: 0.054 | inactive: -0.091 | inactive: -0.093 | inactive: 0.045 | inactive: 0.035 |  | inactive: -0.164 |  | inactive: 0.005 | inactive: 0.01 | inactive: -0.011 | inactive: -0.053 |  | inactive: -0.147 | inactive: 0 |  | inactive: 0.019 | inactive: 0.001 | inactive: -0.076
4 | TOM1L2 (UniProt Q6ZVM7) | inactive: -0.02 | inactive: -0.091 | active: -0.357 |  | inactive: -0.102 | inactive: -0.072 |  | inactive: -0.05 |  | inactive: 0.058 | inactive: -0.04 | inactive: 0.029 | inactive: -0.036 | inactive: -0.002 |  |  | inactive: 0.028 |  |  | 
5 | TRMT61A (UniProt Q96FX7) | inactive: -0.018 | inactive: -0.002 |  | inactive: 0.08 | inactive: -0.038 | inactive: 0.138 | inactive: 0.286 | inactive: 0.02 | inactive: -0.03 | inactive: 0.039 | inactive: 0.083 | inactive: 0.136 | inactive: 0.077 | inactive: 0.025 | inactive: -0.017 | inactive: -0.192 | inactive: -0.051 | inactive: -0.057 | inactive: 0.03 | inactive: -0.18
6 | TRMU (UniProt O75648) | inactive: -0.033 | inactive: 0.01 | inactive: -0.087 | inactive: 0.002 | inactive: 0.032 | inactive: -0.146 | inactive: 0.045 | inactive: 0.005 | inactive: 0.07 | inactive: -0.017 | inactive: -0.082 | inactive: 0.003 | inactive: 0.053 | inactive: -0.036 | inactive: 0.015 | inactive: 0.045 | inactive: -0.008 | inactive: 0.003 | inactive: -0.038 | inactive: 0.008
7 | TRMT10C (UniProt Q7L0Y3) | inactive: -0.129 | inactive: -0.013 |  | inactive: -0.064 | inactive: -0.024 | inactive: -0.055 | inactive: -0.011 | inactive: 0.042 | inactive: 0.041 | inactive: -0.056 | inactive: -0.045 | inactive: -0.031 | inactive: 0.016 | inactive: -0.107 | inactive: -0.033 | inactive: 0.018 | inactive: 0.039 | inactive: 0.005 | inactive: -0.033 | inactive: 0.007
8 | TRMT1L (UniProt Q7Z2T5) | inactive: -0.113 | inactive: -0.032 | inactive: 0.272 | inactive: 0.095 | inactive: 0.02 | inactive: 0.321 | inactive: 0.276 | inactive: 0.143 | inactive: 0.163 | inactive: -0.134 | inactive: -0.054 | inactive: 0.377 | inactive: 0.064 | inactive: 0.204 | inactive: -0.098 | inactive: 0.004 | inactive: -0.097 | inactive: -0.174 | inactive: 0.142 | inactive: -0.138
9 | TRIM28 (UniProt Q13263) | inactive: 0.008 | inactive: -0.064 |  | inactive: 0.048 | inactive: 0.054 | inactive: -0.121 | inactive: -0.075 | inactive: -0.019 | inactive: 0.047 | inactive: -0.032 | inactive: 0.015 | inactive: -0.017 | inactive: 0.046 | inactive: -0.031 | inactive: -0.087 | inactive: 0.003 | inactive: 0.002 | inactive: -0.03 | inactive: -0.005 | inactive: 0.033
10 | TRRAP (UniProt Q9Y4A5) | inactive: 0.076 | inactive: 0.035 | inactive: 0.005 | inactive: -0.031 | inactive: -0.01 | inactive: -0.021 | inactive: -0.01 | inactive: -0.029 | inactive: 0.01 | inactive: 0.001 | inactive: -0.037 | inactive: -0.011 | inactive: -0.016 | inactive: -0.048 | inactive: -0.069 | inactive: -0.011 | inactive: -0.022 | inactive: 0.046 | inactive: 0.03 | inactive: -0.041
11 | TPX2 (UniProt Q9ULW0) | inactive: 0.03 | inactive: -0.022 | inactive: 0.04 | inactive: 0.027 | inactive: 0.013 | inactive: 0.062 | inactive: 0.053 | inactive: -0.028 | inactive: 0 | inactive: 0.046 | inactive: -0.032 | inactive: 0.122 | inactive: -0.021 | inactive: 0.094 | inactive: -0.088 | inactive: 0.126 | inactive: 0.005 | inactive: 0.127 | inactive: 0.026 | inactive: 0.068
12 | TNNC2 (UniProt P02585) | inactive: 0.007 | inactive: 0.095 |  | inactive: -0.139 | inactive: -0.035 | inactive: 0.012 | inactive: -0.025 | inactive: -0.056 | inactive: -0.049 | inactive: 0.037 | inactive: -0.037 | inactive: 0.038 | inactive: -0.006 | inactive: 0.007 | inactive: -0.172 | inactive: 0.014 | inactive: 0.008 | inactive: 0.045 | inactive: -0.027 | inactive: 0.025
13 | TRIM56 (UniProt Q9BRZ2) | inactive: -0.069 | inactive: -0.057 | inactive: 0.124 | inactive: 0.096 | inactive: 0.004 |  | inactive: 0.063 | inactive: 0.087 | inactive: 0.069 |  | inactive: -0.083 | inactive: 0.341 | inactive: 0.018 | inactive: 0.074 | inactive: -0.046 | inactive: 0.033 | inactive: -0.031 | inactive: -0.14 | inactive: 0.072 | inactive: -0.054
14 | TPCN1 isoform 3 (UniProt Q9ULQ1) | inactive: 0.066 | inactive: 0.025 | inactive: 0.075 | inactive: 0.012 | inactive: 0.03 | inactive: -0.105 |  | inactive: -0.007 |  | inactive: -0.054 | inactive: -0.064 | inactive: 0.101 | inactive: -0.047 | inactive: -0.005 | inactive: -0.113 | inactive: 0.086 | inactive: 0.033 | inactive: 0.093 | inactive: -0.037 | inactive: 0.053
15 | TNRC6B (UniProt Q9UPQ9) | inactive: 0.093 | inactive: -0.152 | inactive: 0.011 | inactive: -0.061 | inactive: -0.101 |  |  | inactive: -0.092 |  |  | inactive: -0.053 | inactive: 0.368 | inactive: -0.045 | inactive: 0.118 |  | inactive: 0.018 |  |  | inactive: 0.059 | inactive: -0.333
16 | TPR (UniProt P12270) | inactive: 0.152 | inactive: -0.147 |  | inactive: -0.035 | inactive: 0.239 | inactive: 0.005 | inactive: -0.043 | inactive: -0.112 | inactive: -0.047 | inactive: 0.023 | inactive: -0.048 | inactive: 0.115 | inactive: 0.049 | inactive: 0.055 | inactive: -0.076 | inactive: 0.065 | inactive: -0.056 | inactive: -0.06 | inactive: 0.044 | inactive: 0.036
17 | TOMM5 isoform 2 (UniProt Q8N4H5) | inactive: -0.033 | inactive: 0.064 |  | inactive: 0.027 | inactive: 0.059 | inactive: 0.01 | inactive: -0.033 | inactive: -0.031 | inactive: -0.036 | inactive: 0.049 | inactive: -0.027 | inactive: 0.079 | inactive: 0.045 | inactive: 0.137 | inactive: -0.141 | inactive: -0.021 | inactive: 0.073 | inactive: 0.044 | inactive: -0.016 | inactive: -0.086

Copied from the list.
log2 fold change [18], TPCN1 isoform 3 (UniProt Q9ULQ1) reads inactive: 0.093
log2 fold change [14], TNRC6B (UniProt Q9UPQ9) reads inactive: 0.118
